This is an account of results in article doi:10.1101/2020.12.02.409078.

Chains of the proteins cited; added tags and fusions are not shown.
UniProt P70168: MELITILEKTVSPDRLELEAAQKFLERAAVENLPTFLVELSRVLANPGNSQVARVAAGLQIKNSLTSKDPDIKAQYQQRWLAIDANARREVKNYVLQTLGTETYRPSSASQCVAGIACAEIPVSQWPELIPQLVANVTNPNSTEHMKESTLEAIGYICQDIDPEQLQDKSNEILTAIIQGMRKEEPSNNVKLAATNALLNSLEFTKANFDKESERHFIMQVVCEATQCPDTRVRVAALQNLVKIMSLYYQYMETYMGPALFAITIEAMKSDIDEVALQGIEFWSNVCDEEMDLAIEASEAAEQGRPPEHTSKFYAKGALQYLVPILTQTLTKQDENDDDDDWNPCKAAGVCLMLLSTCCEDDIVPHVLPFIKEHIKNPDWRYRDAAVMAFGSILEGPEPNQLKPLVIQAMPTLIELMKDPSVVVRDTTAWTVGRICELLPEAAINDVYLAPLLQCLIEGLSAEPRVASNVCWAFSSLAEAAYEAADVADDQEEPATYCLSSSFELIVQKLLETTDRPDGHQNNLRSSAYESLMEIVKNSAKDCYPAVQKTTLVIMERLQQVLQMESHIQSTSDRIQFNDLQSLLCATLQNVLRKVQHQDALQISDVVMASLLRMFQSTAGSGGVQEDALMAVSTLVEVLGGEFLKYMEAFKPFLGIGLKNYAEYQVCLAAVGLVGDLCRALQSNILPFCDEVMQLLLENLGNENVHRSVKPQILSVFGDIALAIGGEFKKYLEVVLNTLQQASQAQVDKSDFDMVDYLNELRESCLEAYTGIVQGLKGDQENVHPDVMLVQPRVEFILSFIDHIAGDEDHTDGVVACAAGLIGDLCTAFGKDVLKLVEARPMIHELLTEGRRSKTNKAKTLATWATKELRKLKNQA
UniProt Q62433: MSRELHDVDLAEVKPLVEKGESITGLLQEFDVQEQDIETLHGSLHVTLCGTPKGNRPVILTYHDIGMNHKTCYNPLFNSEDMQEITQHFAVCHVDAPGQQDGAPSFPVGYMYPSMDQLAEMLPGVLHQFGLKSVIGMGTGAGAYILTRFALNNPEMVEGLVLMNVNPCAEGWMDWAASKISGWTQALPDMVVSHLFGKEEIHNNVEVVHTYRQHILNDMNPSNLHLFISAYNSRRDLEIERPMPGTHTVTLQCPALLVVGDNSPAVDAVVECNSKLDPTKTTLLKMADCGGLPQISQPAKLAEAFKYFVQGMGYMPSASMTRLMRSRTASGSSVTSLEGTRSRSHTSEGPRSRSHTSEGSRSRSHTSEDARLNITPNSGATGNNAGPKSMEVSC
UniProt O35343: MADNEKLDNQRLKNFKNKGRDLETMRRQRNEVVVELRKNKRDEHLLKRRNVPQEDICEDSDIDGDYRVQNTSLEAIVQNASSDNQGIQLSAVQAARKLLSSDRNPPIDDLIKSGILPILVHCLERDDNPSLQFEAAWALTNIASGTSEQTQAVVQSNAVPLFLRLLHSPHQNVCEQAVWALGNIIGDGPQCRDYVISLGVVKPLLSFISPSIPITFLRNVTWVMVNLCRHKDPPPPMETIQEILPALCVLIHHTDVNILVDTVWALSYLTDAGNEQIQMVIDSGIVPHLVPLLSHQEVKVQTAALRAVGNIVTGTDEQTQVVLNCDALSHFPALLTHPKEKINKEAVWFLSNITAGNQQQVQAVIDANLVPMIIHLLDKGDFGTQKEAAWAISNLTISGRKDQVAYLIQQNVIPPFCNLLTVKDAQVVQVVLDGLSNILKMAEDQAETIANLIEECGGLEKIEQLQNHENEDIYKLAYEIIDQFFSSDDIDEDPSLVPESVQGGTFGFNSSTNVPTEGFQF
UniProt O35344: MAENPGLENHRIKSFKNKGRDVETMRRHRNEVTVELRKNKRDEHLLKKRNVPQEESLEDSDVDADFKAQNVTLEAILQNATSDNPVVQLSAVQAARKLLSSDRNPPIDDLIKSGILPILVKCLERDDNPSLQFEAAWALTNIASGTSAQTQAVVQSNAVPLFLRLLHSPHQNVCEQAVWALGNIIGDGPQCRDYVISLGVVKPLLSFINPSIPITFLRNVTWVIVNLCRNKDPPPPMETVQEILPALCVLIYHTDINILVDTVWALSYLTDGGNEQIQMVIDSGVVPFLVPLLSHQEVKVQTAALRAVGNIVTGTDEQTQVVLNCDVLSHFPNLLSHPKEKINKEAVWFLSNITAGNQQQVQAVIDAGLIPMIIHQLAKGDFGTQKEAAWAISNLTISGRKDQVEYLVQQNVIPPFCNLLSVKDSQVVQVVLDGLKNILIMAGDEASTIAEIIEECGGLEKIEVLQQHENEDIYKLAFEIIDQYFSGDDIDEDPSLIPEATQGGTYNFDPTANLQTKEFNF
UniProt Q60960: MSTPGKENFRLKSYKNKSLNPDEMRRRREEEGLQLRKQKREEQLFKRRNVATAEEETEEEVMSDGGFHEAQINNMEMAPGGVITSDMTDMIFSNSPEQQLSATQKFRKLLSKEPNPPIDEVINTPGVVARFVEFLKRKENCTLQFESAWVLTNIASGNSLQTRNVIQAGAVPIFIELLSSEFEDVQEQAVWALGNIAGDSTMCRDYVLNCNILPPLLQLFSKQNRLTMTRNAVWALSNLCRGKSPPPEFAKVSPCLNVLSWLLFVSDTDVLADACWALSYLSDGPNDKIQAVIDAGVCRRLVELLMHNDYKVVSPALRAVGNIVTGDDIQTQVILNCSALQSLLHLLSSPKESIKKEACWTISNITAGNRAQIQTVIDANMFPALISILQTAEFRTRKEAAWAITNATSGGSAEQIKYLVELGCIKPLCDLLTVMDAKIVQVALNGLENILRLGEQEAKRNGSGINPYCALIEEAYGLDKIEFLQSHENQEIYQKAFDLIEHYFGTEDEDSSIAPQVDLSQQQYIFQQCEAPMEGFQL
UniProt Q9EPL8: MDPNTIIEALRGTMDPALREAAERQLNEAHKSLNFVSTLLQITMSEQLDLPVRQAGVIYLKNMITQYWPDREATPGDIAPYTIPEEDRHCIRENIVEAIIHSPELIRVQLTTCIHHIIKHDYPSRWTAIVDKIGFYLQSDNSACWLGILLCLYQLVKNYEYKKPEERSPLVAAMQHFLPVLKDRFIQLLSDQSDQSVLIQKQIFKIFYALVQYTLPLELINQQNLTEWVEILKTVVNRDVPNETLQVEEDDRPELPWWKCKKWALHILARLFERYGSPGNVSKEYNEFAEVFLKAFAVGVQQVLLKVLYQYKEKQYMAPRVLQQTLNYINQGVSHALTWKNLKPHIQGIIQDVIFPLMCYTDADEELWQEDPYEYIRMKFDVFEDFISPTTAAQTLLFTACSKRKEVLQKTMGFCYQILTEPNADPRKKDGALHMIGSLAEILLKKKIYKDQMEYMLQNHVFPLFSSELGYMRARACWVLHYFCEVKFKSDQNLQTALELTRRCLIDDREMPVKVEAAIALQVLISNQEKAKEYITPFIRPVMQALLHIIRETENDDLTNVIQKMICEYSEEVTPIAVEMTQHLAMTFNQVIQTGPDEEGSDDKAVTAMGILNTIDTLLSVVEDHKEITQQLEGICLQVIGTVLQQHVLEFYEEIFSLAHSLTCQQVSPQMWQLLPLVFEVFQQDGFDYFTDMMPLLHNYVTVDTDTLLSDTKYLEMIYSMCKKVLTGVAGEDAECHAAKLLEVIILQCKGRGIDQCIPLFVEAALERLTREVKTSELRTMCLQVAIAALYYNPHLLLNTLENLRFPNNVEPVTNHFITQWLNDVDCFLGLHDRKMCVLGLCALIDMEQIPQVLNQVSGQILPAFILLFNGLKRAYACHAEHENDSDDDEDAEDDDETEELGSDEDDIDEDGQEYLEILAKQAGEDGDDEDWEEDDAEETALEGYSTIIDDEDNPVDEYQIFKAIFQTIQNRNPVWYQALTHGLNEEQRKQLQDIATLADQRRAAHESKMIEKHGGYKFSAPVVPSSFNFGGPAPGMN

In test [1] the target is importin-β1 (mouse (endogenous in forebrain synaptosomes)) (UniProt P70168). The experiment in a line: co-IP.
Test [2] deals with N-myc downstream regulated gene1 (NDRG1) (mouse (endogenous in forebrain synaptosomes)) (UniProt Q62433). Description: co-IP.

These are yes or no findings as the source states them, for the method shown. Binding seen in cells or lysates may run through a third protein. Some results given as binding are weak or reduced against the parent protein; the word gives no strength.

Consider Imp-α6 (from UniProt O35345 1-536), for which the binding result in test [1] is “binds”.
Imp-α4 (from UniProt O35343 1-521): the binding result in test [1] is “binds”.
On the same count and under the same terms, as for Imp-α3 (from UniProt O35344 1-521), the entry is “binds”; as for Imp-α1 (from UniProt Q60960 1-538), “binds”; as for importin-7 (from UniProt Q9EPL8 1-1038), “binds”.
importin-β1 (from UniProt P70168 1-876): the binding result in test [2] is listed as “binds”.
